Values of other authors as cited in patent publication US20090197855A1, “PHARMACEUTICAL COMPOSITIONS OF CEFDINIR” (priority 2006, published 2009).
For at least one compound, name, drawing or mass did not settle the structure.

Test system: Staphylococci and streptococci
Details: J. Antibiotics, Vol. XLI, No 6, 829, 1988

C=CC1=C(C(=O)O)N2C(=O)[C@@H](NC(=O)/C(=N\O)c3csc(N)n3)[C@H]2SC1 [Cefdinir, 7-[2-(2-aminothiazol-4-yl)-2-hydroxyiminoacetamido]-3-vinyl-3-cephem-4-carboxylic acid (syn isomer)]
antibacterial activity against Staphylococci and streptococci: excellent antibacterial activity
